Test results published in PubChem BioAssay AID504444 (National Center for Advancing Translational Sciences (NCATS), 2011).
The campaign covered roughly 360,000 compounds. About 7,500 (2.1%) were called active. The inconclusive results got no clear call from the source; some entries with a clear call stand among them for comparison. Calls follow the shape of the dose curve; as a rule, active = well fitted inhibition curve with a large enough effect; inconclusive = small, poorly fitted or top-dose-only effect, or effect the other way; inactive = flat fitted curve, though single readings scatter. A potency beside an inconclusive call is a rough fit, not a confirmed value.

Assay: Nrf2 qHTS screen for inhibitors; also: nearly all actives have a fitted effect of over 60% in size
Conditions: A549 ARE-Fluc reporter, luciferase luminescence, 18-24 h; activity change, negative = inhibition: at 46 µM (top of the series)
In short: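 A549 ARE_Fluc cells (5000/well, 5% FBS OPTI-MEM) pre-incubated 2 h, then treated with compounds 18-24 h at 37C/5% CO2 in concentration-response. CellTiter-Fluor viability read first; BugLite luciferase luminescence after 15 min at room temperature gives Nrf2 activity.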
% is scaled to controls: 0 for no effect and ±100 for the full control effect; potency is read from the fitted curve at half-maximal effect.

Compound	Potency	activity change, negative = inhibition
Cc1cc(C)n(CC(=O)NNC(=O)COc2ccc(F)cc2Br)n1	inactive	
Nc1cc2[nH]c(=O)c3ccccc3c2cc1[N+](=O)[O-]	inconclusive: 18.4 µM [falling, partial curve]	
Cc1ccc2c(c1)N(CC(=O)NCCCN1CCCCC1C)C(=O)c1cccnc1O2 (stereo unspecified)	inconclusive: 29.1 µM [activator, single point]	
C/C(=N\NC(=O)c1ccc(Cl)c(Cl)c1)c1ccccn1	active: 2.31 µM	
CN(C)C(=O)C1Cc2ccccc2CN1S(=O)(=O)c1cccs1 (stereo unspecified)	inconclusive: 32.6 µM [activator, partial curve, poor fit]	
Fc1ccc2nc3[nH]c4ccccc4c3nc2c1	inconclusive: 13 µM [activator, partial curve]	
O=[N+]([O-])c1cccc(-c2csc(CS(=O)(=O)Cc3ccco3)n2)c1	inconclusive: 0.461 µM [falling, full curve, poor fit]	
Cc1ccc(SCC(=O)Nc2cccc(-c3nnc(-c4ccco4)o3)c2)cc1	inconclusive: 29.1 µM [falling, single point]	
COc1ccc([N+](=O)[O-])cc1NC(=O)Cc1ccc(Cl)cc1	inconclusive: 32.6 µM [falling, single point]	
Oc1c(C=Nc2ccccc2)sc2ccccc12	inconclusive: 20.6 µM [activator, single point]	
Cc1onc(-c2ccccc2Cl)c1C(=O)OCC(=O)Nc1ccc2c(c1)OCO2	inconclusive: 16.4 µM [falling, partial curve, poor fit]	
CCc1ccc2ncc3c(-c4ccc(C)cc4)nn(CC(=O)Nc4ccc(C)cc4)c3c2c1	inconclusive: 29.1 µM [activator, single point]	
COc1ccc(Oc2nc3c(C)cccn3c(=O)c2/C=C(\C#N)c2nc3ccccc3[nH]2)cc1	inactive	
CCOC(=O)n1cc(-c2cnc(CNC(=O)C(C)(c3ccccc3)c3ccccc3)o2)c2ccccc21	inactive	
Cc1ccc(SCc2ccc(C(=O)Nc3cccc([N+](=O)[O-])c3)cc2)cc1	inconclusive: 13 µM [falling, partial curve, poor fit]	
COc1cc(CCC(=O)N2CCN(c3ccc([N+](=O)[O-])cc3)CC2)cc(OC)c1OC	inconclusive: 29.1 µM [falling, single point]	
O=C(NCCc1ccc(O)c(O)c1)C1COc2ccccc2O1 (stereo unspecified)	inconclusive: 16.4 µM [activator, single point]	
CN(CC(=O)NC(=O)NC1CCCCC1)CC(=O)Nc1ccc(Cl)cc1	inconclusive: 29.1 µM [falling, single point]	
O=C(N1CCCC1)C12CC3CC(CC(C3)C1)C2	inactive	
Cc1ccsc1C1Nc2ccc3ncccc3c2C2=C1C(=O)CC(C)(C)C2 (stereo unspecified)	inactive	
c1ccc(-n2ncc3c(N4CCN(CCOc5cccc6ccccc56)CC4)ncnc32)cc1	inconclusive: 29.1 µM [falling, single point]	
Cc1ccc(NC2=NC3(CCCCC3)N=C(N)N2)c(C)c1	inactive	

Compound	Potency	activity change, negative = inhibition
COc1ccc(C(=O)c2sc(Nc3cc(Cl)ccc3C)nc2N)cc1OC	inconclusive: 2.31 µM [activator, full curve, poor fit]	
Cc1ccn2c(Nc3ccc4c(c3)OCO4)c(-c3ccccn3)nc2c1	inconclusive: 29.1 µM [falling, single point]	
COc1ccc2[nH]c(-c3ccc(C)cc3)cc(=O)c2c1	inconclusive: 23.1 µM [activator, single point]	
Cc1nc2nc(SCC(=O)N(Cc3ccccc3)C(C)C)nn2c(C)c1Cc1ccccc1Cl		inactive: 8.79% [at 9.27 µM]
O=C(Nc1cccc(S(=O)(=O)NCc2ccco2)c1)c1cc(-c2ccccc2)nc2ccccc12	inconclusive: 29.1 µM [falling, single point]	
O=C(Nc1ccc(F)cc1F)c1cccc(C(=O)Nc2ccc(F)cc2F)n1	inconclusive: 16.4 µM [falling, single point]	
COc1ccc(S(=O)(=O)NCCc2csc(-c3cccnc3)n2)cc1	inconclusive: 29.1 µM [activator, single point]	
Cc1ccsc1C(=O)NCCC(c1ccccc1)c1ccccc1	inactive	
NC(=O)C1=C[C@H](C2CCCCC2)C[C@H](OCc2ccc(CO)cc2)O1	inconclusive: 9.2 µM [activator, partial curve]	
COc1cc(C(=O)N2CCCC(c3nc(-c4cccs4)no3)C2)cc(OC)c1OC (stereo unspecified)	inconclusive: 29.1 µM [falling, single point]	
Cc1ccc(C(C)C)c(OCC(O)CN(C)Cc2ccccc2)c1 (stereo unspecified)	inactive	
CSc1ccc(CCNc2ncnc3onc(-c4ccc(Cl)cc4)c23)cc1	active: 9.2 µM	
COc1ccc(C2CC(c3cccs3)=NN2C(=O)CCC(=O)O)cc1OC (stereo unspecified)	inconclusive: 2.91 µM [activator, full curve, poor fit]	
CCCCN(CC)CCNC(=O)c1ccc2c(Cl)c3c(nc2c1)CCC3	inactive	
CCC1(CC)NC(=O)N(CC(=O)Nc2ccc(OCc3ccccc3)cc2)C1=O	inconclusive: 18.4 µM [activator, single point]	
CCC(=O)c1ccc(OCc2ccc(C(=O)OC)o2)c(OC)c1	inconclusive: 2.59 µM [activator, full curve]	
COc1c(Cl)cc(Cl)cc1/C=N/NC(=O)c1nnn(-c2nonc2N)c1CN1CCC(C)CC1	inactive	
CCOc1ccc(-c2cc3nc(C4CCN(C(=O)OC(C)(C)C)CC4)c(C(=O)O)cn3n2)cc1	inconclusive: 18.4 µM [falling, single point]	
CCOC(=O)C1CCN(C(=O)N2CCOCC2)CC1	inactive	
COc1ccc(-c2nc(C#N)c(NCc3ccc(F)cc3)o2)cc1OC	inconclusive: 20.6 µM [falling, single point]	
O=C1NN=C(c2ccc(Cl)cc2)CC1c1cccc(Br)c1 (stereo unspecified)	inconclusive: 29.1 µM [falling, partial curve, poor fit]	
CC(C)OCCCNC(=O)CSc1c2c(nc3ccc(Cl)cc13)CCCC2	inactive	

Sorted by molecular weight (high to low): part of the list above.
Compound	Potency	activity change, negative = inhibition
Cc1ccc(SCC(=O)Nc2cccc(-c3nnc(-c4ccco4)o3)c2)cc1	inconclusive: 29.1 µM [falling, single point]	
O=C(NCCc1ccc(O)c(O)c1)C1COc2ccccc2O1 (stereo unspecified)	inconclusive: 16.4 µM [activator, single point]	
CCOC(=O)C1CCN(C(=O)N2CCOCC2)CC1	inactive	

Further entries:

Compound	Potency	activity change, negative = inhibition
COc1ccc(-n2ncc3c(SCC(=O)NNC(C)=O)ncnc32)cc1	inconclusive: 1.46 µM [activator, full curve, poor fit]	
CCOc1ccc(NC(=O)c2nsc(Cl)c2Cl)cc1	inconclusive: 3.26 µM [activator, full curve, poor fit]	
CC(=O)c1ccc(NC(=O)CCc2nc(-c3ccc(C)cc3)no2)cc1	inactive	
CCN(CC)S(=O)(=O)c1ccc(OC)c(NC(=O)CSc2cc(Cl)ccc2Cl)c1	inconclusive: 16.4 µM [falling, single point]	
CCOC(=O)c1ccc(NC(=O)CC2C(=O)N(c3ccc(F)cc3)C(=O)N2Cc2ccc(C)cc2)cc1 (stereo unspecified)	inconclusive: 29.1 µM [falling, single point]	
Cn1ccnc1SCC(=O)c1ccc(F)cc1	inconclusive: 20.6 µM [activator, partial curve, poor fit]	
COc1cc(C#Cc2c(-c3cncn3C)n(C)c3ccc(-c4ccc5cc[nH]c5c4)cc23)cc(OC)c1	inconclusive: 29.1 µM [falling, single point]	
CC(C)=CC(=O)OCc1cc([N+](=O)[O-])cc2c1OCOC2	inconclusive: 7.31 µM [activator, partial curve]	
CCn1c(SCC(=O)Nc2ccc(C(C)=O)cc2)nc2c([nH]c3ccccc32)c1=O	inconclusive: 29.1 µM [falling, single point]	
COc1ccc(CN2C(=O)C(C)S/C2=N/N=C/c2ccco2)cc1 (stereo unspecified)	inconclusive: 4.61 µM [activator, full curve]	
CCn1c(=O)n(CC)c2cc(N)ccc21	inconclusive: 32.6 µM [falling, single point]	
NS(=O)(=O)c1ccc(NC(=O)COC(=O)c2cn(-c3ccccc3)nc2-c2ccccc2)cc1	inconclusive: 20.6 µM [falling, single point]	
O=C(CCl)N(C/C=C/c1ccccc1)c1ccc2c(c1)OCCO2	inconclusive: 1.3 µM [activator, full curve, poor fit]	
CCCCOc1ccc(/C=C/C(=O)Nc2ccc([N+](=O)[O-])cc2C)cc1	inconclusive: 7.31 µM [falling, partial curve, poor fit]	
Cn1c(=O)n(C)c2cc([N+](=O)[O-])c(N3CCN(C(=O)c4ccccc4Br)CC3)cc21	active: 18.4 µM	
CCOc1ccccc1CNC(=O)CCc1cn(CC)c2ccccc12	inconclusive: 23.1 µM [falling, partial curve, poor fit]	
CCN(CC)C(=O)N1CCC(NC(=O)c2ccc(C(C)(C)C)cc2)CC1	inconclusive: 29.1 µM [falling, partial curve, poor fit]	
CCOc1ccccc1CNC(=O)c1ccc(Cn2c(SCc3ccccc3)nc3cccnc32)cc1	active: 20.6 µM	
COc1cc(/C=N/Nc2ccccn2)ccc1OCC(C)C	inconclusive: 0.651 µM [activator, full curve, poor fit]	
CCOC(=O)c1c(NC(=O)CSc2nnc(-c3c[nH]c4ccccc34)n2C)sc2c1CCCC2	inconclusive: 18.4 µM [falling, single point]	
CC(C)(C)C(=O)N1CCN(c2nc3ccc(Cl)cc3s2)CC1	inconclusive: 29.1 µM [falling, single point]	
CCc1ccc2nc(SCC(=O)N3CC(=O)Nc4ccccc43)c(C#N)cc2c1	inactive	
